From US20080269121A1, “Methods and Compositions Involving A1c Subunit of L-Type Calcium Channels in Smooth Muscle Cells” (The Board of Regents of the University of Texas System, priority 2005, published 2008)
At least one compound was matched to its structure with a doubt left.

System: α1C1b promoter
Experiment: α1C1b promoter luciferase reporter activity in HCCSMC
Format: cell-based, human
Details: for α1C1b promoter reporter (luciferase) activity: substance by itself
Protocol: Transient cell transfections and luciferase activity. FuGENE 6 (Roche, Mannheim, Germany) is used to transfect luciferase-expressing pGL2 constructs in HCCSMC. The cells in passage 4 are seeded into 12-well plates (Costar, Acton, Mass.) and grown to 70% to 80% confluency. Transfections are carried out by incubation of cells in each well with 1.5 μl of FuGENE 6, 0.5 μg of pGL2 construct, and 0.125 μg of pSEAP2 Control Vector (BD Biosciences Clontech, Palo Alto, Calif.) for 24 h as per manufacturer's instructions. The pSEAP2 Control Vector is co-transfected for normalization of data. The transfected cells were treated with stimulus or medium control and harvested after 24 hours. Twenty μl of the supernatant of the cell lysates are taken for the measurement of luciferase activity by a luminometer (Promega, Madison, Wis.). The SEAP activity is measured with a Clontech SEAP detection kit by following the manufacturer's instructions.
Promoter constructs, 5′-deletions, and site-directed mutagenesis. The promoter constructs of hα1c1b are prepared by PCR amplification of human genomic DNA (Roche, Indianapolis, Ind.) and digested partially with Hind III (Promega, Madison, Wis.) using the FailSafe PCR kit (Epicentre, Madison, Wis.). The PCR product is subcloned into pDrive Cloning Vector with the PCR Cloning^plus kit (Qiagen, Valencia, Calif.) and SURE 2 supercompetent cells (Stratagene, La Jolla, Calif.) and subsequently transferred to the luciferase expression plasmid pGL2-Basic Vector (Promega, Madison, Wis.). The deletion constructs are made using the full length promoter construct as a template in PCR reactions. The same methods and kits are used to subclone the sequenced PCR products into the pDrive and pGL2 vector. The site-directed mutagenesis is carried out using QuikChange® II XL Site-Directed Mutagenesis Kit from Stratagene (La Jolla, Calif.), as per manufacturer's instructions.

Oc1c2ccccc2c2c3c(cccc13)N=N2 [SP600125]
α1C1b promoter reporter (luciferase) activity: increase promoter activity
α1C1b promoter reporter (luciferase) activity (listed as JNK antagonist): enhanced promoter activity by itself
effect on enhancement of α1C1b promoter activity by VIP (with VIP): father enhanced it
